Measured values taken from US5952204A, “β-fructofuranosidase, its preparation and uses” (priority 1995, dated 1999).
For at least one compound, name, drawing or mass did not settle the structure.

Tested on: β-fructofuranosidase
Assay: Acceptor specificity (TLC, sucrose as donor)
Type: biochemical, Bacillus sp. V230 (FERM BP-5054)
Design: key: -: unchanged; +: the spot for acceptor was slightly reduced while forming a fructosyltransferred saccharide in small quantities; ++: the spot for acceptor was significantly reduced while forming a fructosyltransferred saccharide in large quantities
Settings: acceptor plus equal amount of sucrose as donor, 10%, 2 units/g sucrose, 40° C., pH 5.5, 24 hours
Protocol: A saccharide solution with a final concentration of 10%, which consists of one of the monosaccharides, oligosaccharides, and alcohols in Table 1, and an equal amount of sucrose as a donor, d.s.b., was mixed with 2 units/g sucrose of a purified β-fructofuranosidase obtained by the method in Experiment 2, and allowed to react enzymatically at 40° C. and pH 5.5 for 24 hours. The mixtures before the enzymatic reaction and the reaction mixtures after the enzymatic reaction were subjected to TLC similarly as in Experiment 4, and the saccharides were colored by spraying 0.5-N phosphoric acid containing 0.2 w/v % naphthoresorcinol and heating at 110° C. for about 5 min to check the formation of transferred saccharides.

| Compound | Transferred saccharide (formation) |
| --- | --- |
| OC[C@H]1O[C@H](OC[C@H]2OC(O)(CO)[C@@H](O)[C@@H]2O)[C@H](O)[C@@H](O)[C@@H]1O (some centres unmarked) [Palatinose] | + |
| O=C(CO)[C@@H](O[C@H]1O[C@H](CO)[C@@H](O)[C@H](O)[C@H]1O)[C@H](O)[C@H](O)CO [Turanose] | + |
